Results reported in PubChem BioAssay AID504834 (National Center for Advancing Translational Sciences (NCATS), 2011).
Screen size: about 320,000 compounds; about 22,000 (6.9%) were called active. The shares of active, inactive and inconclusive entries below differ from those in the screen. Calls follow the shape of the dose curve; as a rule, active = well fitted inhibition curve with a large enough effect; inconclusive = small, poorly fitted or top-dose-only effect, or another doubt; inactive = no such curve, though single readings can be large or run the other way. Potencies of inconclusive entries are doubtful fits and often do not repeat.

Test: Primary qHTS for delayed death inhibitors of the malarial parasite plastid, 96 hour incubation
Details: P. falciparum luciferase reporter growth; series mostly up to 28.7 µM
Method in brief: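 Infected RBCs, 2% Hct / 0.05% parasitemia final; luciferase-reporter P. falciparum; cpd 96 h, 37 C, 5% CO2; luciferase detection reagent; luminescence.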
% is scaled to controls: 0 for no effect and ±100 for the full control effect; potency is read from the fitted curve at half-maximal effect.

| Compound | Potency | activity change, negative = inhibition |
| --- | --- | --- |
| COC(=O)C1=C(C)NC(=S)NC1c1ccc(-c2cccc(Cl)c2)o1 (stereo not given) | inconclusive: 2.62 µM [inhibitor, full curve, poor fit] | – |
| CC(C)OC(=O)C(CC(=O)O)N1CCOCC1 (stereo not given) | inactive | – |
| O=C(NCCNC(=O)c1ccccc1Br)c1ccccc1Br | inconclusive: 20.8 µM [inhibitor, partial curve, poor fit] | – |
| COc1ccc(S(=O)(=O)NCC2CCC(C(=O)NCCC(C)C)CC2)cc1 (stereo not given) | inconclusive: 1.47 µM [inhibitor, partial curve, poor fit] | – |
| Cn1c(C(=O)NCc2cccnc2)cc2sc(Cl)cc21 | inconclusive: 0.657 µM [inhibitor, full curve] | – |
| CC(=O)C1C(c2ccc(F)c(F)c2)NC(=O)NC1(O)C(F)(F)F (stereo not given) | inactive | – |
| COC(=O)c1cccc(C23CC4(C2)[C@H](CN(Cc2cccnc2)[C@@H]4c2ccccc2)C3c2ccc(C(F)(F)F)cc2)c1 (stereo not given in full) | inconclusive: 0.37 µM [inhibitor, full curve, poor fit] | – |
| COc1ccc(OC)c(Nc2nc3nonc3nc2N2CCCC(C)C2)c1 (stereo not given) | inconclusive: 16.5 µM [inhibitor, single point] | – |
| COc1cccc(/C=N/NC(=O)c2cc(-c3cccn3C)n[nH]2)c1O | inconclusive: 2.94 µM [inhibitor, full curve] | – |
| COc1ccccc1N1CCN(C(C)C(=O)Nc2ccc(S(=O)(=O)N3CCOCC3)cc2)CC1 (stereo not given) | inconclusive: 13.1 µM [inhibitor, single point] | – |
| Cc1ccc(S(=O)(=O)NC(C)CCc2ccccc2)cc1C(N)=O (stereo not given) | inconclusive: 18.5 µM [inhibitor, single point] | – |
| COc1ccccc1C(=O)NCC(=O)OC(C)C(=O)N1CCOCC1 (stereo not given) | inactive | – |
| Cc1ccc(S(=O)(=O)NNC(=S)NCCc2ccccc2)cc1 | inactive | – |
| C#Cc1ccc([C@@H]2C=C(C(=O)NCc3nc4ccccc4[nH]3)O[C@H](OCC)[C@H]2CCCO)cc1 | inconclusive: 18.5 µM [inhibitor, single point] | – |
| CC1(C)CC2CC(C)(CN2c2ncnc3ccccc23)C1 (stereo not given) | inconclusive: 18.5 µM [inhibitor, partial curve, poor fit] | – |
| Cc1cc(C)cc(N(CCC#N)C(=O)CSc2n[nH]c(N)n2)c1 | inactive | – |
| CCN(CC)CCNC(=O)c1cn(CC)c2ccc(S(=O)(=O)N3CCOCC3)cc2c1=O | inconclusive: 18.5 µM [inhibitor, single point] | – |
| Cc1ccc2ncnc(Nc3ccccc3)c2c1 | inactive | – |
| O=C(c1ccc(Cn2cnnn2)cc1)N1CCCC(Nc2ccc(F)c(F)c2)C1 (stereo not given) | inactive | – |
| CCN1CCN(C(=O)c2cc3c(=O)oc4ccc(C)cc4c3s2)CC1 | inactive | – |
| CC1(C)CC(=O)C(C=NC(CCC(N)=O)C(=O)O)=C(O)C1 (stereo not given) | inconclusive: 18.5 µM [inhibitor, single point] | – |
| CCCC[C@H](CC(=O)c1ccccc1)[C@@H](OC(C)=O)C(=O)Oc1c(C(C)C)cccc1C(C)C | inconclusive: 1.65 µM [inhibitor, full curve, poor fit] | – |
| CS(=O)(=O)N1CCN(c2ccc(NC(=O)CSc3nnc(-c4ccco4)o3)cc2)CC1 | inconclusive: 18.5 µM [inhibitor, single point] | – |
| OCc1c[nH]c2ccccc12 | inconclusive: 10.4 µM [inhibitor, single point] | – |

4 entries from above, with each value named:
CC(C)OC(=O)C(CC(=O)O)N1CCOCC1 (stereo not given)
  Potency: inactive
COc1ccc(OC)c(Nc2nc3nonc3nc2N2CCCC(C)C2)c1 (stereo not given)
  Potency: inconclusive: 16.5 µM [inhibitor, single point]
CCN(CC)CCNC(=O)c1cn(CC)c2ccc(S(=O)(=O)N3CCOCC3)cc2c1=O
  Potency: inconclusive: 18.5 µM [inhibitor, single point]
O=C(c1ccc(Cn2cnnn2)cc1)N1CCCC(Nc2ccc(F)c(F)c2)C1 (stereo not given)
  Potency: inactive

(listing goes on)

| Compound | Potency | activity change, negative = inhibition |
| --- | --- | --- |
| O=C(Cc1ccc(S(=O)(=O)N2CCOCC2)s1)NC1CCCCC1 | inconclusive: 7.38 µM [inhibitor, partial curve] | – |
| CCOc1ccc(Cl)cc1S(=O)(=O)n1cnc2cc(C)c(C)cc21 | inconclusive: 6.57 µM [inhibitor, partial curve, poor fit] | – |
| Cc1c(CCOC(=O)C23CC4CC(CC(C4)C2)C3)sc[n+]1CC#N | inconclusive: 4.15 µM [inhibitor, single point] | – |
| COc1ccc(NS(=O)(=O)c2cccc(NC(=O)CCS(=O)(=O)c3ccccc3)c2)cc1 | inconclusive: 13.1 µM [inhibitor, single point] | – |
| CCCCOc1ccc(C(=O)NCCOc2cccc(OC)c2)cc1 | inconclusive: 11.7 µM [inhibitor, partial curve, poor fit] | – |
| CCOc1ccc(OCc2ccc(C(=O)O)o2)cc1 | inconclusive: 18.5 µM [inhibitor, single point] | – |
| COc1ccc(NC(=O)N2CCN(C(=O)Nc3ccc(OC)cc3)CC2)cc1 | inactive | – |
| Cc1nnc(NC(=O)CSc2ccccc2N)s1 | inconclusive: 18.5 µM [inhibitor, single point] | – |
| CC(NC(=O)c1ccc2ccccc2n1)c1ccccc1 (stereo not given) | inconclusive: 16.5 µM [inhibitor, single point] | – |
| Cc1ccc(CSCCNC(=O)CN(c2ccccc2)S(C)(=O)=O)cc1 | – | inactive: 21.7% [at 5.75 µM] |
| CCCc1cc(NCCCN(C)C)n2c(nc3ccccc32)c1C#N | inactive | – |
| Cc1ccc(C(=O)C[n+]2ccccc2)cc1 | inactive | – |
| O=[N+]([O-])c1ccc(N/N=C\c2cccn2-c2ccccc2)nc1 | inconclusive: 13.1 µM [inhibitor, partial curve] | – |
| O=C(COC(=O)c1ccc(O)cc1O)NC(=O)NCc1ccccc1 | inconclusive: 0.0026 µM [inhibitor, full curve, poor fit] | – |
| O=C1CN(C(=O)COc2ccc(Cl)cc2Cl)c2ccccc2N1 | inactive | – |
| CCN(CC)Cc1c(O)ccc2cc(-c3nc4ccccc4n3C)c(=O)oc12 | inactive | – |
| CCOc1ccc(NC(=S)c2ccc3ccccc3n2)cc1 | inactive | – |
| Cc1c(C(=O)N(Cc2nccn2C)C(C)C)oc2c(F)cccc12 | inactive | – |
| CCC(=O)N(C)CCc1cc2c(c(OC)c1/C=N/NC(=O)c1ccc(Br)cc1)OCO2 | inactive | – |
| Cc1onc(-c2ccccc2)c1C(=O)OCCOc1ccc([N+](=O)[O-])cc1[N+](=O)[O-] | active: 4.15 µM | – |
| O=C(N/N=C/c1ccccc1O)C1(O)c2ccccc2-c2ccccc21 | inactive | – |
| Cc1nc(Cl)cc(N/N=C/c2ccccc2)n1 | inactive | – |
| Cc1sc(NC(=O)CN2CCOCC2)c(C(=O)c2ccccc2)c1C | inconclusive: 0.329 µM [inhibitor, full curve, poor fit] | – |
| CCCNC(=O)CN(c1ccc(F)cc1)S(=O)(=O)c1ccc2c(c1)OCCO2 | inconclusive: 18.5 µM [inhibitor, single point] | – |

Fetched by compound from above (2):

| Compound | Potency | activity change, negative = inhibition |
| --- | --- | --- |
| COc1ccc(NS(=O)(=O)c2cccc(NC(=O)CCS(=O)(=O)c3ccccc3)c2)cc1 | inconclusive: 13.1 µM [inhibitor, single point] | – |
| COc1ccc(S(=O)(=O)NCC2CCC(C(=O)NCCC(C)C)CC2)cc1 (stereo not given) | inconclusive: 1.47 µM [inhibitor, partial curve, poor fit] | – |

Further structures

| Compound | Potency | activity change, negative = inhibition |
| --- | --- | --- |
| CC(C)C[C@H](NC(=O)N1CCCCCC1)C(=O)O | inactive | – |
| O=C(Nc1cccc(S(=O)(=O)NC2=NCCCCC2)c1)c1cc(-c2ccco2)nc2ccccc12 | inconclusive: 13.1 µM [inhibitor, single point] | – |
| COc1ccc(-c2ccc(=O)n(CC(=O)NC3CCc4ccccc43)n2)cc1OC (stereo not given) | inactive | – |
| CCOC(=O)C1=NN(C(=O)Nc2ccc(OC)cc2)C2C(=O)N(c3cccc(C(F)(F)F)c3)C(=O)C12 (stereo not given) | inactive | – |
| COc1ccc(C2CCCN2C(=S)Nc2ccccc2C)cc1OC (stereo not given) | inconclusive: 0.0037 µM [inhibitor, full curve, poor fit] | – |
| O=C(O)C1C2CCC(C2)C1C(=O)NCCc1cccc(Cl)c1 (stereo not given) | inconclusive: 10.4 µM [inhibitor, single point] | – |
| CCOc1ccccc1CNC(=O)C1CCC(=O)N1C(C)C (stereo not given) | inconclusive: 0.0657 µM [inhibitor, full curve, poor fit] | – |
| C/C(=N\NC(=S)Nc1cccc(C)c1)c1ccccc1 | active: 5.22 µM | – |
| Cc1c(NS(=O)(=O)c2ccc(NC(=O)CCC(=O)O)cc2)c(=O)n(-c2ccccc2)n1C | inactive | – |
| Cc1ccc(S(=O)(=O)N2CCCCC2)cc1C(=O)OCC(=O)NC(=O)NC12CC3CC(CC(C3)C1)C2 | inconclusive: 14.7 µM [inhibitor, single point] | – |
| CCN1CCCc2cc(CN(CCN3CCOCC3)C(=S)Nc3ccc(OC)c(OC)c3)ccc21 | inconclusive: 18.5 µM [inhibitor, single point] | – |
| Cc1cc(C)nc(NS(=O)(=O)c2ccc(N/C=C\C(=O)c3cccs3)cc2)n1 | inconclusive: 18.5 µM [inhibitor, single point] | – |
| CCCCn1c(N)c(N(CCOC)C(=O)c2ccc(Cl)c(S(=O)(=O)N3CCCC3)c2)c(=O)[nH]c1=O | inconclusive: 14.7 µM [inhibitor, partial curve, poor fit] | – |
| COc1ccccc1CNC(=O)Cn1c(=O)oc2cc(Cl)ccc21 | inconclusive: 10.4 µM [inhibitor, single point] | – |
| CC1(CC(=O)N/N=C/c2cc([N+](=O)[O-])c(O)cc2O)OCCO1 | inactive | – |
| CCOC(=O)CON1C(=O)C(=O)N(OCC(=O)OCC)[C@H]2CCCC[C@H]21 | inactive | – |
| COc1cccc(OCC(=O)Nc2ccccc2C(N)=O)c1 | inconclusive: 18.5 µM [inhibitor, single point] | – |
| CC(C)(C)C(=O)Nc1ccccc1C(=O)N1CCCC1 | inconclusive: 11.7 µM [inhibitor, partial curve, poor fit] | – |
| CSc1nsc(SC)c1NC(=O)OCC1CCCO1 (stereo not given) | inconclusive: 13.1 µM [inhibitor, single point] | – |
| CC(C)n1cc(-c2nc(C(=O)NN)cs2)c(=O)n(Cc2ccccc2)c1=O | inconclusive: 14.7 µM [inhibitor, partial curve, poor fit] | – |
| O=C(COC(=O)c1ccccc1O)Nc1cc(S(=O)(=O)N2CCCCCC2)ccc1Cl | inconclusive: 5.86 µM [inhibitor, partial curve] | – |
| CCN(CC(=O)NCc1cccs1)C(=O)CCOc1ccccc1C | inactive | – |
